# From article PMC4151019 (Clinical Pharmacology and Therapeutics, 2014)
# Tested on: P-gp
# Details: rifampicin pretreatment
structure (smiles),measurement,setting,value
CC(C)(C(=O)O)c1ccc(C(O)CCCN2CCC(C(O)(c3ccccc3)c3ccccc3)CC2)cc1 (centres unmarked) [fexofenadine],"AUC2,3,6 decrease",DBS,48%
same,AUClast decrease,plasma,51%
